Test results taken from patent US8114862B2, “TGR5 modulators and methods of use thereof” (Intercept Pharmaceuticals, Inc., priority 2008, dated 2012).

System: HepG2 cells
Assay: cells
Conditions: Homo sapiens, HepG2, 4 h, read-out: APOPTOSIS Caspase-3 activation EC50

## CN[C@@H]1C[C@H]2O[C@@](C)([C@@H]1OC)n1c3ccccc3c3c4c(c5c6ccccc6n2c5c31)C(=O)NC4 [Staurosporine]
  EC50: 3000 nM
